{
  "sequences": {"note": "Amino acid sequences for entries named in this document (tags omitted). Residues count along the entry.", "UniProt P21802, residues 22-821": "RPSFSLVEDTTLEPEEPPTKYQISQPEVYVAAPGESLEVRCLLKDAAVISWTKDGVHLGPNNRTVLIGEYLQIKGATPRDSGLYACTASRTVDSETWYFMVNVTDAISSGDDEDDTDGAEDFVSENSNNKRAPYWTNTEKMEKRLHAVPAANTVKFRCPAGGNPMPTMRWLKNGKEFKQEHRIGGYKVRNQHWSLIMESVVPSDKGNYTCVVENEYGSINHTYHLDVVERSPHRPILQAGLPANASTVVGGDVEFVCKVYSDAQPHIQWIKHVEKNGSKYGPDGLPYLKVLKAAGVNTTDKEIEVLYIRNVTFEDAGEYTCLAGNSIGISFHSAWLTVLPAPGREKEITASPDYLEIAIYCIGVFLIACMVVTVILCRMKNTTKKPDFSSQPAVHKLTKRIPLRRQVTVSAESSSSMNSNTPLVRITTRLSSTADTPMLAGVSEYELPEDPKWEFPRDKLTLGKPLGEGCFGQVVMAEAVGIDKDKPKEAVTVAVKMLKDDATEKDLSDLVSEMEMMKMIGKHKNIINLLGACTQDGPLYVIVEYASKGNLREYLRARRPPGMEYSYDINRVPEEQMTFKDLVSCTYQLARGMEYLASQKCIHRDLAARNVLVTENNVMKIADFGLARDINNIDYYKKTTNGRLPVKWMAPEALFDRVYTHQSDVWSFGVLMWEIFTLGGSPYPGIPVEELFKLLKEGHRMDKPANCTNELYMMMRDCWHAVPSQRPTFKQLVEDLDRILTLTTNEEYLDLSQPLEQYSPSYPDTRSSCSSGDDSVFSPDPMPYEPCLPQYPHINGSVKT"},
  "source": "paper doi:10.1101/2022.02.24.481761",
  "molecular_target": "FGFR2 on human dermal papilla cells (DPCs) (human (endogenous in primary dermal papilla cells)) (UniProt P21802)",
  "assay": "flow cytometry on cells",
  "note": "Results are given in words; binding and its absence hold for the method and conditions named. Some results given as binding are weak or reduced against the parent protein; the word gives no strength.",
  "data": [
    {"binder": "AVLKRLEQKGAEADQIIEYLKQQVSLLKEKAILQATLREEK (peptide, UniProt Q12904 6-46, biotin (EZ-Link Sulfo-NHS-LC-Biotinylation kit; sites not stated))", "note": "[TN41 (AIMP1 aa 6-46), biotinylated]", "values": [
      {"measurement": "binding", "result": "binds"}
    ]}
  ]
}
